The target in experiment [1] is vimentin (human (endogenous in U251)) (UniProt P08670). The experiment can be described thus: co-sedimentation; vimentin solubilized and precipitated by a series of buffer exchanges in two cycles of dialysis, followed by Western blotting for GSK-3.
Experiment [2] concerns the target yellow-fluorescent protein (YFP)-vimentin fusion protein (human) (UniProt P08670). Briefly: FRET or BRET; CFP and YFP fusion proteins transiently expressed in live U251 cells; confocal microscopy (Zeiss LSM510).
The target of experiment [3] is glutathione-s-transferase (GST)-GSK-3α fusion protein (UniProt P49840). Briefly: pull-down; GST-GSK-3 (α or β) transiently expressed in U251 cells; 500 μg TX100 protein extract incubated with glutathione agarose beads at 4 °C for 1 h, washed with TX100 lysis buffer; Western blot for vimentin.
The target in experiment [4] is glutathione-s-transferase (GST)-GSK-3β fusion protein (UniProt P49841). Described as above.

Protein sequences, listed by entry. Tags and fused reporters are not part of them.
UniProt P08670: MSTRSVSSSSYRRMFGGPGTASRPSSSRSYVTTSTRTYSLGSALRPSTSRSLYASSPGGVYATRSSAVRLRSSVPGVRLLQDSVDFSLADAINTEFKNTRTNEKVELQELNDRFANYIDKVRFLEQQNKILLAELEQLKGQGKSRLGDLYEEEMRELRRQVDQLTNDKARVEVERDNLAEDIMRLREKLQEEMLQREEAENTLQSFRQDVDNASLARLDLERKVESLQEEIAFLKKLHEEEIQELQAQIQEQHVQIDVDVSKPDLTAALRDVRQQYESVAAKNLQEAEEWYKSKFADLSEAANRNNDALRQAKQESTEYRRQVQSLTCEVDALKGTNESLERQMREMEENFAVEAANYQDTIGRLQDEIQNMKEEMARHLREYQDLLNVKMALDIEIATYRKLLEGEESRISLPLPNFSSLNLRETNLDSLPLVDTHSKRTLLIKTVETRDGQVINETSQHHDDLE
UniProt P49840: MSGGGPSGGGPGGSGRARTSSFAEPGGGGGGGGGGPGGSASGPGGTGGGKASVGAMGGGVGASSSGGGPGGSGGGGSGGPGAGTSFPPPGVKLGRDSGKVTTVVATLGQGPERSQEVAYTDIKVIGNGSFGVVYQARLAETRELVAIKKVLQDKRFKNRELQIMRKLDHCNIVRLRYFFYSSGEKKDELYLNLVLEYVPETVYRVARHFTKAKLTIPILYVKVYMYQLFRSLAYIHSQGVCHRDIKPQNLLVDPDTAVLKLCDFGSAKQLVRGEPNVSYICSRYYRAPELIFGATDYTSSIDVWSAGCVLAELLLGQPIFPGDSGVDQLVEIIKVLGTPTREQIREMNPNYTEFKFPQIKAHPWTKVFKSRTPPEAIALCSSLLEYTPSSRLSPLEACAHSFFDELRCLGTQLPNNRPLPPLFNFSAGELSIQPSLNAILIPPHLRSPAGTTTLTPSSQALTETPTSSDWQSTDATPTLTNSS
UniProt P49841: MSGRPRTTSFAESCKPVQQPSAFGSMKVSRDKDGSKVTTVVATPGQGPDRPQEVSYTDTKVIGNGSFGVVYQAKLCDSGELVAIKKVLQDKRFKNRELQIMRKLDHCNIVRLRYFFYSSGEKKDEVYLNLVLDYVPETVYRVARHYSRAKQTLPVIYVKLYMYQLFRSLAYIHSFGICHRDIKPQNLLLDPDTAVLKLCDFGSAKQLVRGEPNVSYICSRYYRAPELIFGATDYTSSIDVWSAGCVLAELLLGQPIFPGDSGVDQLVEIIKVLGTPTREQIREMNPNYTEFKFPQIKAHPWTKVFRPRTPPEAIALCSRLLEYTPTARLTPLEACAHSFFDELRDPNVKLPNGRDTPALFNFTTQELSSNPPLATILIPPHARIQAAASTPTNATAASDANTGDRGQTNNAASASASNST

These are yes or no findings as the source states them, for the method shown. Binding seen in cells or lysates may run through a third protein. Some binding calls cover weakened binding; strength is not graded here.

Here are results for four substances from publication PMC6521049.

Turning to “GSK-3β (from UniProt P49841 1-420) (enzyme)”, the binding entry in experiment [1] is reported as “binds”.

As to “cyan-fluorescent protein (CFP)-GSK-3β fusion protein (from UniProt P49841 1-420) (enzyme)”, in experiment [2], the binding entry is given as “binds”. For “GSK-3α (from UniProt P49840 1-483) (enzyme)”, the binding entry in experiment [1] is “binds”. In the case of vimentin (from UniProt P08670 1-466), the binding entry in experiment [3] and in experiment [4] was “binds” each time.
